Assay results reported in the supplement of paper PMC8728848.
The list shows a part of the results.

How the values were obtained:
Experiment in all cases: glycan array binding signal (z-score within array); higher = stronger binding
Conditions in all cases: glycan notation: IUPAC condensed, linker removed
Gal(a1-3)Gal(b1-3)GlcNAc = target: Gal(a1-3)Gal(b1-3)GlcNAc
Summary of the method: (§1)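 Glycan array data were curated from 3228 arrays in the Consortium for Functional Glycomics database and kept only where the protein sequence was available. Glycan names were converted to IUPAC-condensed notation, and columns mapping to the same glycan were averaged. The binding signal is a within-array Z-score, averaged across arrays of the same protein sequence at different concentrations or buffers and across linkers. Negative Z-scores can be read as non-binding.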

[1] = target: Gal(a1-3)Gal(b1-3)GlcNAc(b1-2)Man
Summary of the method: as §1

[2] = target: Gal(a1-3)Gal(b1-3)GlcNAc(b1-2)Man(a1-3)[Gal(a1-3)Gal(b1-3)GlcNAc(b1-2)Man(a1-6)]Man(b1-4)GlcNAc(b1-4)GlcNAc
Summary of the method: as §1

[3] = target: Gal(a1-3)Gal(b1-3)GlcNAc(b1-3)GalNAc
Summary of the method: as §1

[4] = target: Gal(a1-3)Gal(b1-3)GlcNAc(b1-6)GalNAc
Summary of the method: as §1

[5] = target: Gal(a1-3)Gal(b1-3)[Fuc(a1-4)]GlcNAc(b1-2)Man(a1-3)[Gal(a1-3)Gal(b1-3)[Fuc(a1-4)]GlcNAc(b1-2)Man(a1-6)]Man(b1-4)GlcNAc(b1-4)GlcNAc
Summary of the method: as §1

Gal(a1-3)Gal(b1-4)Glc = target: Gal(a1-3)Gal(b1-4)Glc
Summary of the method: as §1

Gal(a1-3)Gal(b1-4)GlcNAc = target: Gal(a1-3)Gal(b1-4)GlcNAc
Summary of the method: as §1

[6] = target: Gal(a1-3)Gal(b1-4)GlcNAc(b1-2)Man
Summary of the method: as §1

[7] = target: Gal(a1-3)Gal(b1-4)GlcNAc(b1-2)Man(a1-3)[Gal(a1-3)Gal(b1-4)GlcNAc(b1-2)Man(a1-6)]Man(b1-4)GlcNAc(b1-4)GlcNAc
Summary of the method: as §1

[8] = target: Gal(a1-3)Gal(b1-4)GlcNAc(b1-3)GalNAc
Summary of the method: as §1

[9] = target: Gal(a1-3)Gal(b1-4)GlcNAc(b1-6)GalNAc
Summary of the method: as §1

[10] = target: Gal(a1-3)Gal(b1-4)[Fuc(a1-3)]GlcNAc
Summary of the method: as §1

[11] = target: Gal(a1-3)Gal(b1-4)[Fuc(a1-3)]GlcNAc(b1-2)Man(a1-3)[Gal(a1-3)Gal(b1-4)[Fuc(a1-3)]GlcNAc(b1-2)Man(a1-6)]Man(b1-4)GlcNAc(b1-4)GlcNAc
Summary of the method: as §1

Gal(a1-3)GalNAc = target: Gal(a1-3)GalNAc
Summary of the method: as §1

[12] = target: Gal(a1-3)[Gal(a1-4)]Gal(b1-4)GlcNAc
Summary of the method: as §1

[13] = target: Gal(a1-4)Gal(b1-3)GlcNAc(b1-2)Man(a1-3)[Gal(a1-4)Gal(b1-3)GlcNAc(b1-2)Man(a1-6)]Man(b1-4)GlcNAc(b1-4)GlcNAc
Summary of the method: as §1

Gal(a1-4)Gal(b1-4)Glc = target: Gal(a1-4)Gal(b1-4)Glc
Summary of the method: as §1

Gal(a1-4)Gal(b1-4)GlcNAc = target: Gal(a1-4)Gal(b1-4)GlcNAc
Summary of the method: as §1

[14] = target: Gal(a1-4)Gal(b1-4)GlcNAc(b1-2)Man(a1-3)[Gal(a1-4)Gal(b1-4)GlcNAc(b1-2)Man(a1-6)]Man(b1-4)GlcNAc(b1-4)GlcNAc
Summary of the method: as §1

[15] = target: Gal(a1-4)Gal(b1-4)GlcNAc(b1-3)Gal(b1-4)Glc
Summary of the method: as §1

Gal(a1-4)GlcNAc = target: Gal(a1-4)GlcNAc
Summary of the method: as §1

Gal(a1-6)Glc = target: Gal(a1-6)Glc
Summary of the method: as §1

Gal(b1-2)Gal = target: Gal(b1-2)Gal
Summary of the method: as §1

Gal(b1-3)Gal = target: Gal(b1-3)Gal
Summary of the method: as §1

Gal(b1-3)Gal(b1-4)GlcNAc = target: Gal(b1-3)Gal(b1-4)GlcNAc
Summary of the method: as §1

Gal(b1-3)GalNAc = target: Gal(b1-3)GalNAc
Summary of the method: as §1

[16] = target: Gal(b1-3)GalNAc(a1-3)[Fuc(a1-2)]Gal(b1-4)Glc
Summary of the method: as §1

[17] = target: Gal(b1-3)GalNAc(a1-3)[Fuc(a1-2)]Gal(b1-4)GlcNAc
Summary of the method: as §1

Gal(b1-3)GalNAc(b1-3)Gal = target: Gal(b1-3)GalNAc(b1-3)Gal
Summary of the method: as §1

[18] = target: Gal(b1-3)GalNAc(b1-3)Gal(a1-4)Gal(b1-4)Glc
Summary of the method: as §1

[19] = target: Gal(b1-3)GalNAc(b1-4)Gal(b1-4)Glc
Summary of the method: as §1

[20] = target: Gal(b1-3)GalNAc(b1-4)[Neu5Ac(a2-3)]Gal(b1-4)Glc
Summary of the method: as §1

Gal(b1-3)GlcNAc = target: Gal(b1-3)GlcNAc
Summary of the method: as §1

[21] = target: Gal(b1-3)GlcNAc(a1-3)Gal(b1-4)GlcNAc
Summary of the method: as §1

[22] = target: Gal(b1-3)GlcNAc(a1-6)Gal(b1-4)GlcNAc
Summary of the method: as §1

Gal(b1-3)GlcNAc(b1-2)Man = target: Gal(b1-3)GlcNAc(b1-2)Man
Summary of the method: as §1

[23] = target: Gal(b1-3)GlcNAc(b1-2)Man(a1-3)[Gal(b1-3)GlcNAc(b1-2)Man(a1-6)]Man(b1-4)GlcNAc(b1-4)GlcNAc
Summary of the method: as §1

B1: GS7807Q-bfa-507-19-507 (Bacteroides fragilis) (protein)
chain: ASCNKFDDLNTNPDAATKVTAPMLATKLILNITQQGSAKNFVYHSMLSKQIAWSENASDEQYNLFGRTDFDGYTILTNCQKMVDAANEGDKDSYAALAKFMKAYKLFYKSLEVGDIPYSDALKGEEGVQKPKYDTQKEVMRQVLEDLEEAYTLFSSGSDFDGDPIFGGDTENWKKTVVAFELKVLTHLCKKDTDADLKVKERFARLVSSGSLMTSNADNFQLVYSNKAGQLYPFYYTQNKHSDYLMMSSVIIDNLKKFNDYRMFYYASPAKAQTDKGIKDSEWDAYLSIDPSDSYSNISVLYGKGEFCLANLRYTRVPEGEPLMRLSYAEQNFILAEGAVRGWISEDASTYYKKGIEASMNFIADNTPDKEEYTHGRTITQEYIQEYLAQPVIQLSGDKEKDLEMILLQRYLASFLQHPYDAYYDYRRTGYPVLPINPSTNLNTEKNKIPTRWMYPEAEFSYNPDNANEAVQRQYNGSDDVNKLMWILQ
glycan array binding signal (z-score) (Gal(a1-3)Gal(b1-3)GlcNAc): -0.088 | glycan array binding signal (z-score) [1]: 1.63 | glycan array binding signal (z-score) [2]: 0.365 | glycan array binding signal (z-score) [3]: 1.09 | glycan array binding signal (z-score) [4]: 0.078 | glycan array binding signal (z-score) [5]: 0.452 | glycan array binding signal (z-score) (Gal(a1-3)Gal(b1-4)Glc): -0.67 | glycan array binding signal (z-score) (Gal(a1-3)Gal(b1-4)GlcNAc): -0.146 | glycan array binding signal (z-score) [6]: -0.427 | glycan array binding signal (z-score) [7]: 3.33 | glycan array binding signal (z-score) [8]: -0.044 | glycan array binding signal (z-score) [9]: -0.567 | glycan array binding signal (z-score) [10]: 0.431 | glycan array binding signal (z-score) [11]: 0.944 | glycan array binding signal (z-score) (Gal(a1-3)GalNAc): -0.197 | glycan array binding signal (z-score) [12]: 0.361 | glycan array binding signal (z-score) [13]: 1.5 | glycan array binding signal (z-score) (Gal(a1-4)Gal(b1-4)Glc): -0.026 | glycan array binding signal (z-score) (Gal(a1-4)Gal(b1-4)GlcNAc): 0.712 | glycan array binding signal (z-score) [14]: 1.59 | glycan array binding signal (z-score) [15]: -0.723 | glycan array binding signal (z-score) (Gal(a1-4)GlcNAc): -0.18 | glycan array binding signal (z-score) (Gal(a1-6)Glc): -1 | glycan array binding signal (z-score) (Gal(b1-2)Gal): 0.131 | glycan array binding signal (z-score) (Gal(b1-3)Gal): -0.945 | glycan array binding signal (z-score) (Gal(b1-3)Gal(b1-4)GlcNAc): 0.505 | glycan array binding signal (z-score) (Gal(b1-3)GalNAc): -0.161 | glycan array binding signal (z-score) [16]: -0.121 | glycan array binding signal (z-score) [17]: -0.635 | glycan array binding signal (z-score) (Gal(b1-3)GalNAc(b1-3)Gal): 0.094 | glycan array binding signal (z-score) [18]: 0.089 | glycan array binding signal (z-score) [19]: 0.978 | glycan array binding signal (z-score) [20]: 0.654 | glycan array binding signal (z-score) (Gal(b1-3)GlcNAc): -0.667 | glycan array binding signal (z-score) [21]: -0.274 | glycan array binding signal (z-score) [22]: -0.771 | glycan array binding signal (z-score) (Gal(b1-3)GlcNAc(b1-2)Man): -0.443 | glycan array binding signal (z-score) [23]: 2.5
